Source: ChEMBL document CHEMBL3988442, “University of Dundee, Small-Polar-MMV Screening Library” (2021).

Mtb glucose medium: 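Growth of Mycobacterium tuberculosis over 3 days (7H9 medium with glucose and tyloxapol); the read-out is not stated. Tested at 50 µM. Higher reads as more growth inhibition (inferred: compounds with an IC50 in retests scored well above the rest). Size under these conditions: about 69,000 compounds, about 760 of them at 50% or above in at least one test.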
Mtb cholesterol medium: 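Growth of Mycobacterium tuberculosis over 4 days (cholesterol / DPPC medium with tyloxapol); the read-out is not stated. Concentration: 50 µM. The record gives no direction; compounds that gave an IC50 in retests scored well above the rest, so higher reads as more growth inhibition. Size under these conditions: about 69,000 compounds, about 370 of them at 50% or above in at least one test.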

Each number is a percent effect as filed. How 0% and 100% were set is not recorded. Most values in the screen are low, and negative values occur. The compounds are a random part of those screened. Two or more numbers in one place are separate tests of the same structure; such repeats can differ widely.

structure,Mtb glucose medium,Mtb cholesterol medium
Cc1cnn(CC2CCCN2C(=O)c2ccc3cc[nH]c3c2)c1 (centres undefined),-7.286,-27.6
Cc1ccc(NC2(C(=O)N3CCn4cncc4C3)CCCCC2)cc1C,8.883 and 9.697,18.56
O[C@H]1CN(Cc2ccnc(N3CCCC3)n2)CC[C@@]12CCCO2,-34.92,-13.14
CNC(=O)c1ccc(Cn2ccnc2S(C)(=O)=O)cc1,7.637,3.482
CN1CCN(C2CCN(Cc3noc(C4CC4)n3)CC2)C1=O,4.317,5.119
C=Cc1ccc(C(=O)N2CCCC(Nc3ccccc3)C2)cc1 (centres undefined),15.29,29.82 and 25.98
CN1CC(c2cc(O)nc(NCc3ccccc3Cl)n2)CC1=O (centres undefined),15.17,-6.622
O=C(O)C(F)(F)F.O=C(c1cccnc1)N1CCc2ncnc(N3CCOCC3)c2CC1,-12.96,-0.5696 and 5.382
O=C(O)C(F)(F)F.[H][C@@]12C[C@H](C(=O)N3CCCCO3)CN(C(=O)c3ccccn3)[C@]1([H])CCO2,3.341 and -3.998,-16.62
[H][C@@]12CC[C@@](O)(c3ccc(C)cn3)[C@]1([H])CN(Cc1ccc(Cl)cc1Cl)C2,-17.68,-7.388
CCCc1nc(CN2CCCCC2Cn2cncn2)cs1 (centres undefined),17.78,6.612
N#Cc1ccccc1N1CCCN(CC(=O)Nc2ccccc2Cl)CC1,16.2,-10.69
COCCN1CCCC2(CCN(c3nc(C)nc4ccsc34)C2)C1=O (centres undefined),21.32,5.389
O=C(O)C(F)(F)F.O=C(O)C(F)(F)F.[H][C@@]12OCCN(c3nnc(C)s3)[C@@]1([H])CC[C@@H]2OCc1ccccn1,26.07 and -3.646,-0.4564
O=C(O)C(F)(F)F.O=C(O)C(F)(F)F.O=C(O)C(F)(F)F.[H][C@]12COC[C@H](N3CCN(C)CC3)[C@@]1([H])CN(Cc1cc(C)cc(C)c1)C2,-29.06,-9.792 and -15.89
CCS(=O)(=O)N(C)C1CCN(C(=O)c2cccc(Cl)c2)CC1,17.43,-4.407 and -3.736
Cc1cc2nc(C(C)C)cc(NC(C)c3nncn3C)n2n1 (centres undefined),-20.48 and 3.351,13.26
CC(C)(C)c1noc(CCCC(=O)N2CCNC(=O)C2)n1,2.178 and 0.9378,-0.1202
CCCNC(=O)c1cccc2ncccc12,-19.1,0.3628
CC(O)CN(CC(=O)NC(=O)NC1CC1)c1ccccc1 (centres undefined),-5.504,-4.974
Fc1cccc(C2(CNC3CCOC4(CCOCC4)C3)CCOCC2)c1 (centres undefined),-3.135 and 17,-2.963
Cc1ccc(C(C(=O)N2CCN(C(=O)c3ccc[nH]3)CC2)N(C)C)cc1 (centres undefined),-4.595,-0.9243
O=C(Nc1ccccc1OCCc1ccccn1)N1CCOCC(O)C1 (centres undefined),19.87,-19.47
CS(=O)(=O)c1ccc(CNC(=O)NCc2cc[nH]n2)cc1,4.678 and 5.489,-2.557
Cc1nc(-n2cnnc2)ccc1-c1cccc2c1CCNC2,-45.56,-33.51
CC(C)Oc1cc(N2CCCC(O)C2)nc(N)n1 (centres undefined),-30.44,-39.16
CSc1ccc(NC(=O)COCc2ccccc2)nc1,-32.89,9.427
COc1cccc2c1ccn2CCC(=O)Nc1c2c(nn1C)CSC2,-18.17 and 13.13,5.068
CCc1cc(O)nc(C2CCCN(Cc3ccncc3)C2)n1 (centres undefined),17.16,0.7233
Cc1ccc(-n2ccnc2)c(C(=O)NCCOCC(F)(F)F)c1,12.56,9.358
CN(C)CCCN1CC2(CCN(C(=O)C3(C)CCCCO3)CC2)OC1=O (centres undefined),-11.87,-26.33
O=c1c2cc3c(cc2nnn1Cc1ccccc1Cl)OCCO3,71.34,-0.3614
Cc1cnc(N2CCC3(C2)C(=O)N(C)CCN3Cc2cccnc2)nc1.O=C(O)C(F)(F)F.O=C(O)C(F)(F)F (centres undefined),11.21 and -1.029,-1.432
CS(=O)(=O)c1cn[nH]c1C1CCCCN1C(=O)c1cnccn1 (centres undefined),4.211,-2.252
NC(=O)CSc1nccc(-c2ccc3c(c2)OCO3)n1,-11.86,-32.14
CC(C)N1CCC(C(=O)N2CCC(C(O)c3nccn3C)CC2)CC1 (centres undefined),-2.436 and -11.06,-8.611
Cc1ccc(-c2cc(C(F)(F)F)nc(N3CCOCC3)n2)s1,4.774,19.43
Cc1noc(C)c1CN(C)CCC(=O)N1CCc2sccc2C1,26.83,12.73
CC(=O)Nc1nc(C(=O)NCc2ccc(N3CCOC(C)C3)nc2)cs1 (centres undefined),-7.308,-22.48
Cc1nc(CN(Cc2ccc3c(c2)OCCO3)C2CCCC2)no1,30.14,29.3
CCC(=O)N1CCCC(c2cc(Nc3ncccn3)nc(C)n2)C1 (centres undefined),-3.525,-16.22
c1ncn(CC2CCCN(Cc3nnc(C4CC4)o3)C2)n1 (centres undefined),-34.71,-34.61
Cc1c(C(C)NC(=O)C2CCCC2)cnn1C (centres undefined),-15.17,-10.23
O=C(O)C(F)(F)F.O=C(O)C(F)(F)F.[H][C@@]12CCN(CC3CC3)[C@]1([H])CC[C@H](C(=O)NCCc1ccncc1)O2,3.906 and 30.37,-5.122
COc1ccccc1OCCC(=O)N1CCCC1Cn1cc(C)cn1 (centres undefined),30.18,-10.76
CC(C)c1nc(CN(C)C2CCN(CCNS(C)(=O)=O)C2)no1 (centres undefined),-36.28,33.78
CC(CCSc1ccccc1)N1CCN(C(=O)c2ccccc2O)CC1 (centres undefined),-8.022,-23.47
CCc1n[nH]c(C2CN(Cc3csc(COC)n3)CCO2)n1 (centres undefined),-8.197,-2.879
COc1ccc(C(=O)N2C[C@@H](C(=O)O)[C@H](c3ccccc3)C2)c(C)c1,-9.098 and -67.25,5.795
O=C(O)Cn1ccc(=O)c2ccccc21,-6.295,-9.833
COCC1CN(Cc2ccoc2)Cc2nn(CC3CC3)cc21.O=C(O)C(F)(F)F (centres undefined),-40.29,-81.86
COc1ccc(-c2nc(CCNC(=O)NCC3CCOC3)co2)cc1 (centres undefined),-3.922,4.483
Cc1ccc(C(=O)N2CC[C@H](Oc3cccnc3C)[C@@H](O)CC2)s1,-13.85,-20.94
CCC(CO)NCc1ccc(-c2ccccc2F)o1 (centres undefined),4.278 and 29.07,28.98
OCCN1CCCCC1C1OCCO1 (centres undefined),-20.01,-30.77
CN1CCN(C)C2(CCN(Cc3ccc(C4CCCO4)s3)CC2)C1 (centres undefined),17.78,-4.778 and 0.8365
O=C(C1NCCc2[nH]cnc21)N1CCC2(C=Cc3ccccc32)CC1 (centres undefined),39.71,21.81
CCn1cc(CN2CCN(CC(O)c3ccc(C)cc3C)CC2)cn1 (centres undefined),-0.4029,-14.62
O=C(O)c1cc(S(=O)(=O)Nc2cccc3c2OCCO3)c(Cl)cc1F,-30.84,-21.29
CC(C)c1cc(COCCC(=O)O)no1,8.197,-0.2971
O=C(N1CCCC1)N1CCC[C@]2(C[C@@H](Oc3ncccc3F)CO2)C1.O=C(O)C(F)(F)F,17.48,8.94
CCCC(=O)N(CC)C(c1cccnc1)c1ccc2c(c1)CCO2 (centres undefined),5.291,8.028 and 3.879
c1cnc(N2CCc3onc(CN4CCOCC4)c3C2)cn1,13.63,-0.9369
COCC1(NC(=O)C(c2ccc(F)cc2)N(C)C)CCCC1 (centres undefined),-23.76,-16.51
CN(Cc1ccon1)c1nc(-c2ccccn2)nc2c1CCNCC2,13.47 and -7.59,-1.527
CC(C)CN1Cc2c(C(=O)N(C)C)ncn2-c2ccccc2S1(=O)=O,-30.04,-4.362
COCCC1(CO)CCCN(Cc2ccc(F)c(C)c2)C1 (centres undefined),24.16,11.32
CCN(Cc1ccncc1)Cc1c[nH]nc1-c1ccc(F)cc1,9.898,3.331
CC(=O)N1CCCN(Cc2nnc(C(C)(C)C)o2)CC1,-6.202 and 7.172,2.845
CC(C)c1nc(CN2CCCN(c3nccs3)CC2)no1,14.73,-5.842
CCc1nc(CN2CCCN(C(=O)c3cc(C)on3)CC2)cs1,-10.03,10.45
[H][C@@]12CS(=O)(=O)C[C@]1([H])N(Cc1ccc3ccccc3c1)CCN2CC1CC1,-39.83,-0.3282 and -13.2
O=C(NCCC1CCCCO1)c1cc(COc2ccccc2F)[nH]n1 (centres undefined),9.606,-5.102
CC(NCc1ccc(OCC(N)=O)cc1)c1ccc(Cl)cc1.Cl (centres undefined),-11.25,5.919
COCCn1cc(C(=O)N2CCCC2c2ccccc2C)ccc1=O (centres undefined),15.36,-2.666 and 0.9634
O=C(O)C(F)(F)F.O=C(c1ccncn1)N1CCC[C@]2(C[C@H](Oc3ncccc3F)CO2)C1,-56.04,11.06
[H][C@@]12CN(c3ccccc3)C(=O)N1CCN(C1CCC1)C2,42.87 and 41.6,22.71
Cc1nc(C)c(CC(=O)N2CCN(CC(C)C)CC2)c(=O)[nH]1,-7.729 and 0.899,-10.2
Cc1ccc(OCC(=O)NS(=O)(=O)c2c(C)noc2C)cc1C,-6.842,-16.59
Cn1nnc2c1CCN(S(C)(=O)=O)C2COCc1ccccc1 (centres undefined),-29.01,-21.3 and -14.61
Cn1cc(C2NC3(CCCC3)C(=O)N2CC2CC2)c(=O)n(C)c1=O (centres undefined),9.587,1.324
O=C1CCC2(CCCN(C(=O)c3ncc[nH]3)C2)CN1CCc1c[nH]cn1 (centres undefined),-5.461 and -11.21,-21
O=C(C1CC1)N1CCCC1c1nnc2n1CCCCC2 (centres undefined),-21.11,-25.48
O=C(C1SCCc2sccc21)N1CCC(O)CC1 (centres undefined),9.543,-9.068 and 6.687
CNC(=O)c1cc(C)n(-c2ccccc2)n1,-7.999,-8.835
FC(F)(F)c1cc(N2CCc3ncnc(NC4CC4)c3CC2)ncn1,7.944,-12.71
O=C(O)C(F)(F)F.O=C(O)C(F)(F)F.[H][C@@]12OCCN(Cc3csc(C)n3)[C@@]1([H])CC[C@@H]2OCc1ccccn1,-23.84,-19.15
O=C(NCC(O)c1ccccc1C(F)(F)F)c1cccnc1 (centres undefined),-17.75,-17.68
Cc1nc(CN2CCCC(N(C)CC(=O)Nc3cccnc3)C2)no1 (centres undefined),-4.822,-1.837
O=S(=O)(c1cccnc1)N1CCN(CC(O)c2cccs2)CC1 (centres undefined),-8.171 and 12.19,0.7619
c1ccc(-c2nc(CNC3CCCN(c4cccnn4)C3)no2)cc1 (centres undefined),-10.63 and 11.35,-2.906
[H][C@]12CCN[C@@]1([H])CN(C(=O)NCc1ccccc1)C2,-45.62,-20.32
CCn1cc(NC(=O)CN2C(=O)CC(C)(C)c3ccccc32)cn1,-14.75,-19.07
NC(=O)c1cc(C2CCCN(CCc3ccccn3)C2)n[nH]1 (centres undefined),-27.97,2.961
Cl.Cl.Cn1ccc(CN2CCOCC23CCNCC3)n1,17.11 and 36.37,14.21
N#Cc1ccccc1N1CCCN(CC(=O)Nc2ccc(Cl)cn2)CC1,7.059,-7.197
CN(C)C(CNCc1nc(-c2ccsc2)no1)c1ccco1 (centres undefined),-10.1,-2.181
CC(C)(NCC(=O)NC(=O)NC1CC1)c1ccc2c(c1)OCO2,28.63 and -2.832,0.6733
Cc1nc(C)n(CC2CN(CC(=O)NC3CCCC3)CCO2)n1 (centres undefined),6.616,-12.41
Cc1n[nH]c(C)c1-c1cnc(C2CCN(S(C)(=O)=O)CC2)cn1,21.35,0.7363